Molecular target: T1, DNA gyrase (Escherichia coli, UniProt P0AES4+P0AES6)
T1 construct: His6 (N); made in house; host or cells: Escherichia coli Rosetta (DE3)
Assay: Inhibition of DNA gyrase supercoiling of relaxed plasmid pBR322 (agarose gel electrophoresis)
Format: biochemical, E. coli
Protocol: The reaction mixture (30 µl) contained 35 mM Tris-HCl (pH 7.5), 24 mM KCl, 4 mM MgCl 2 , 1.4 mM ATP, 5 mM DTT, 1.8 mM spermidine, and 0.1 mg/ml of a bovine serum albumin. A mixture of DNA gyrase A and B subunits (0.4 µg) and 0.25–0.5 µg of the substrate (relaxed plasmid pBR322) were added to the reaction probe. The reaction was performed for 60 min at 25°C (for multiple samples, 96-well plates were used). After the reaction was completed, the samples were extracted with an equal volume of chloroform (30 µl). Then, 7 µl of the mixture containing […], 25% of glycerol, and 0.25% of bromphenol blue were added to the aqueous phase. The mixture was applied on a 1.2% agarose gel in TAE buffer (40 mM Tris-acetate, pH 8.0, 2 mM EDTA) and analyzed with electrophoresis (50 V, 2 h). The products were visualized under UV-light after staining with ethidium bromide. The activity of the enzyme (%) was determined from the intensity of the band corresponding to the super-coiled form of plasmid pBR322 and estimated using the Total Lab v2.01 software.
An equal volume of DMSO was added to the control. The reaction was started upon addition of DNA gyrase (0.4 µg) and relaxed plasmid pBR322 (0.25–0.5 µg), which was used as a substrate, and performed as described above. Calculations were made using the Total Lab v2.01 program.

Sequences of proteins named here, by UniProt entry; tags and fusion partners are left off.
UniProt P0AES4, whole entry: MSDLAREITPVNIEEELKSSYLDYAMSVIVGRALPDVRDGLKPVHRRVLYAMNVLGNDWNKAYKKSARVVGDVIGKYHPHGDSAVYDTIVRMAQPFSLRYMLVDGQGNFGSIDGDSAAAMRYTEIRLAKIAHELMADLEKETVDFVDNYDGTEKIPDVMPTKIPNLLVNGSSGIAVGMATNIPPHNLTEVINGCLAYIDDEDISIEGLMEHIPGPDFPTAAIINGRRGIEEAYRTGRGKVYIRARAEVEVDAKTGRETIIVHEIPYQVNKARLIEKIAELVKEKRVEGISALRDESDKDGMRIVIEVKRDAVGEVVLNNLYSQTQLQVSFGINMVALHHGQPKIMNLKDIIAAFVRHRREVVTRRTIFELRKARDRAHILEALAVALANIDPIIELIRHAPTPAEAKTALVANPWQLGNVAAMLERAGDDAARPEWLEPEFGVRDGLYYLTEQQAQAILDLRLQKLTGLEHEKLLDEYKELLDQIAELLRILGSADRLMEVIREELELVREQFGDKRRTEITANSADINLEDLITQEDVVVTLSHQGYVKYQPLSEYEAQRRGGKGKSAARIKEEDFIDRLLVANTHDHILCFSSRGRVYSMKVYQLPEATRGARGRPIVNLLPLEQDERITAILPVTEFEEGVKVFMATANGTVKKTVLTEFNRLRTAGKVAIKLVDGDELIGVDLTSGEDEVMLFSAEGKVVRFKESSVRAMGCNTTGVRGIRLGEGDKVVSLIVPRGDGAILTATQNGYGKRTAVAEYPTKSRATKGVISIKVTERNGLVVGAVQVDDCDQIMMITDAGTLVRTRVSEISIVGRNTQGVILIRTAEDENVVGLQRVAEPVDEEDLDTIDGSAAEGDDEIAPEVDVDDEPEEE

CCn1cc(C(=O)O)c(=O)c2cc(F)c(N3CCN(C)CC3)cc21 [IOS-PEFL_02, pefloxacin, reference compound]
Inhibitory activity towards DNA gyrase, in words (qualitative statement): moderate activity | Activity towards DNA gyrase compared with that of levofloxacin (relative to levofloxacin, in words): significantly lower

From article PMC3347614 (Acta Naturae, 2011)
